Experimental data reported in paper doi:10.1101/2020.12.13.422562.
No constants are given. Whether binding was seen depends on the method and setting. In cells and extracts the contact can be indirect. Some results given as binding are weak or reduced against the parent protein; the word gives no strength. Where a sequence is shown, tags or fusion partners need not be part of it.

Target: T1, HA epitope-tagged Asc1 (S. cerevisiae) (UniProt P38011)
T1 sequence: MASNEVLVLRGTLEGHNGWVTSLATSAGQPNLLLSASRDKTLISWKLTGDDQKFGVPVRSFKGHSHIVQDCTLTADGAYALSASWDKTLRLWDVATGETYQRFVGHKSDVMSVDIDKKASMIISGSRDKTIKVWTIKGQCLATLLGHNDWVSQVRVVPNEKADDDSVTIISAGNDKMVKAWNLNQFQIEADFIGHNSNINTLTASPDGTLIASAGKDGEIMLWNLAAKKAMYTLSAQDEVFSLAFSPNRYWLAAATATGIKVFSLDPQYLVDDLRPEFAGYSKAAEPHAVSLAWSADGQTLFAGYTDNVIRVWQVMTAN
Test: co-IP

binding: binds weakly
B1: FLAG epitope-tagged Scp160 (protein, UniProt P06105 1-1222)
chain: MSEEQTAIDSPPSTVEGSVETVTTIDSPSTTASTIAATAEEHPQLEKKPTPLPSLKDLPSLGSNAAFANVKVSWGPNMKPAVSNSPSPSPSAPSLTTGLGAKRMRSKNIQEAFTLDLQSQLSITKPELSRIVQSVKKNHDVSVESTLSKNARTFLVSGVAANVHEAKRELVKKLTKPINAVIEVPSKCKASIIGSGGRTIREISDAYEVKINVSKEVNENSYDEDMDDTTSNVSLFGDFESVNLAKAKILAIVKEETKNATIKLVVEDEKYLPYIDVSEFASDEGDEEVKVQFYKKSGDIVILGPREKAKATKTSIQDYLKKLASNLDEEKVKIPSKFQFLIDAEELKEKYNVIVTFPSTPDDELVSFVGLRDKVGEAITYARSSSKSYVVESLDISKAHSKNLTHAKNLIMYFTKYSVLKGLEESHPNVKISLPSIQSLPTAETVTIHISAKSDEANDIKAVRKELISFVNNIPPSETLVITDLDYELFGGSIKHCLLASESSVAFVQFGDYYPNDNSILLVALTEDEDFKPSIEEIQASLNKANESLNSLRTKQNNMETKTYEFSEEVQDSLFKPSSATWKLIMEDISEQEGHLQIKLHTPEENQLTVRGDEKAAKAANKIFESILNSPSSKSKMTVNIPANSVARLIGNKGSNLQQIREKFACQIDIPNEENNNASKDKTVEVTLTGLEYNLTHAKKYLAAEAKKWADIITKELIVPVKFHGSLIGPHGTYRNRLQEKYNVFINFPRDNEIVTIRGPSRGVNKAHEELKALLDFEMENGHKMVINVPAEHVPRIIGKNGDNINDIRAEYGVEMDFLQKSTDPKAQETGEVELEITGSRQNIKDAAKRVESIVAEASDFVTEVLKIDHKYHKSIVGSGGHILREIISKAGGEEIRNKSVDIPNADSENKDITVQGPQKFVKKVVEEINKIVKDAENSVTKTIDIPAERKGALIGPGGIVRRQLESEFNINLFVPNKDDPSGKITITGAPENVEKAEKKILNEIIRENFDREVDVPASIYEYVSERGAFIQKLRMDLSVNVRFGNTSKKANKLARAPIEIPLEKVCGSTEGENAEKTKFTIEEVGAPTSSEEGDITMRLTYEPIDLSSILSDGEEKEVTKDTSNDSAKKEEALDTAVKLIKERIAKAPSATYAGYVWGADTRRFNMIVGPGGSNIKKIREAADVIINVPRKSDKVNDVVYIRGTKAGVEKAGEMVLKSLRR
